Data: paper PMC11130212
These are yes or no findings as the source states them, for the method shown. Binding seen in cells or lysates may run through a third protein. Some entries that bind do so weakly or less than the wild type.

Sequences of proteins named here, by UniProt entry; tags and fusion partners are left off.
UniProt P68871: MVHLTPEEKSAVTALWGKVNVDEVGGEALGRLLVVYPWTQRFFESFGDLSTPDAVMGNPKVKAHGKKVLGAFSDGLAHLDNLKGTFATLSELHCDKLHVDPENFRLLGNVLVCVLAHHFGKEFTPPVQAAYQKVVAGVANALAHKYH

Molecular target: hemoglobin subunit beta (HBB) (UniProt P68871)
Test: co-IP; AC16 cell lysate (1% NP40, 150 mM NaCl, 50 mM Tris HCl pH 8.0), anti-HBB antibody or rabbit IgG, with or without aconitine (AC), overnight at 4 °C; dyna-beads A and G 2 h at 4 °C; Western blot

B1: ABHD5 (protein, UniProt Q8WTS1 1-349)
chain: MAAEEEEVDSADTGERSGWLTGWLPTWCPTSISHLKEAEEKMLKCVPCTYKKEPVRISNGNKIWTLKFSHNISNKTPLVLLHGFGGGLGLWALNFGDLCTNRPVYAFDLLGFGRSSRPRFDSDAEEVENQFVESIEEWRCALGLDKMILLGHNLGGFLAAAYSLKYPSRVNHLILVEPWGFPERPDLADQDRPIPVWIRALGAALTPFNPLAGLRIAGPFGLSLVQRLRPDFKRKYSSMFEDDTVTEYIYHCNVQTPSGETAFKNMTIPYGWAKRPMLQRIGKMHPDIPVSVIFGARSCIDGNSGTSIQSLRPHSYVKTIAILGAGHYVYADQPEEFNQKVKEICDTVD
With B1 the binding was “binds”.
